Source: patent publication US9296755B2, “3,4-dihydro-1H-pyrimido[1,6-a]pyrimidin-6(2H)-one compounds and their therapeutic applications” (GlaxoSmithKline Intellectual Property Development Limited, priority 2013, dated 2016)
Some entries share one result that the patent states for a list of compounds.

How the values were obtained:
[1] = target: T1, recombinant human Lp-PLA2 (Homo sapiens, UniProt Q13093); assay: Recombinant human Lp-PLA2 assay (rhLp-PLA2, PED6 assay); assay type: biochemical; settings: recombinant human Lp-PLA2, PED6 substrate
T1 sequence (Q13093 22-441): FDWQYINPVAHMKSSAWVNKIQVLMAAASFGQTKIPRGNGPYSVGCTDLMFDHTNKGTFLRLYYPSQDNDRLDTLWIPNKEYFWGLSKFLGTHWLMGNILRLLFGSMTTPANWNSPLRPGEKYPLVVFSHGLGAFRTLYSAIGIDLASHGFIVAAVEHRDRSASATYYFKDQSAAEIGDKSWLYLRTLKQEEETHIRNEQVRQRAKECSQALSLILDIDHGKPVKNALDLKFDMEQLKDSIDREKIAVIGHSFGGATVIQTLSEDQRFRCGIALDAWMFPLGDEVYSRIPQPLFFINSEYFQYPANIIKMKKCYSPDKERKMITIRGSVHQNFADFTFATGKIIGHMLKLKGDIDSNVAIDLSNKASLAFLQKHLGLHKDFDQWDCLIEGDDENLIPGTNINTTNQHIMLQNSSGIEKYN
Description: (1) Recombinant Human Lp-PLA2 Assay (rhLp-PLA2) (Also Referred to as “PED6” Assay)
N-((6-(2,4-dinitrophenyl)amino)-hexanoyl)-2-(4,4-difluoro-5,7-dimethyl-4-bora-3a,4a-diaza-s-indacene-3-pentanoyl)-1-hexadecanoyl-sn-glycero-3-phosphoethanolamine, triethylammonium salt (PED6) is a commercially available fluorescently-labeled phospholipid, which is commercially available from Invitrogene and Molecular Probes. There is a quenching […] and a Bodipy fluorescein (FL) group in the sn2 position. Upon cleavage with Lp-PLA2, the Bodipy FL group is liberated and then may result in an increase in fluorescence. Inhibitors of Lp-PLA2 therefore prevent this cleavage and no fluorescent increase is observed.
The PED6 assay was run as an unquenched 10 μL assay. The source plate containing the compounds to be tested was prepared by making 1:3 (by volume) serial dilution of the compounds within DMSO on 384-well microplate. Then, 0.01 μL of the compounds on compound source plate were transferred into 384 well Greiner 784076 (black) plates using ECHO liquid dispenser. 5 μL of recombinant human Lp-PLA2 enzyme (4 nM (or 110 pM) rhLp-PLA2 in assay buffer of 50 mM HEPES, pH 7.4, 150 mM NaCl, 1 mM CHAPS) was added to each well of the plate. Plates were centrifuged for 10 sec at 500 rpm. After 30 minutes preincubation, 5 μL of substrate (4 μM (or 5 μM) PED6 [from 5 mM DMSO stock] in assay buffer of 50 mM HEPES, pH 7.4, 150 mM NaCl, 1 mM CHAPS) was added to 384 well Greiner 784076 (black) plates. Plates were centrifuged for 10 sec at 500 rpm. The plate was covered to protect it from light and incubated for 20 min at room temperature. The plates were read for fluorescence intensity at ex: 480/em: 540 using ViewLux microplate imager for Envision spectrofluroimeters. PIC50 data, curve and QC analysis was conducted by using XL fit module in Excel.

[2] = target: T2, Lp-PLA2 in human plasma (Homo sapiens, UniProt Q13093); assay: Lp-PLA2 human plasma assay (Thio-PAF assay); assay type: biochemical; settings: pooled human plasma
T2 construct: from tissue; host or cells: pooled human plasma
T2 sequence (Q13093 22-441): T1 sequence (Q13093 22-441)
Description: (3) Lipoprotein-Associated Phospholipase A2 (Lp-PLA2) Human Plasma Assay (Also Referred to as “Thio-PAF Assay”)
The human plasma assay utilizes a thioester analog of PAF (phosphatidylcholine), where hydrolysis yields to the formation of a phospholipid containing a free thiol group. The amount of thiol is quantitated continuously by reacting with CPM (7-diethylamino-3-(4′-maleimidylphenyl)-4-methylcoumarin), a maleimide which increases in fluoresence after Michael addition of thiols. This assay may detect the activity of Lp-PLA2 in human plasma, as determined by specific inhibition by Lp-PLA2 inhibitors.
The thio-PAF assay was run as a quenched 15 μL assay. Compounds source plate was prepared by making 1:3 (by volume) serial dilution of the compounds into pure DMSO on 384-well microplate. 0.01 μL of compounds on compound source plate were transferred to 384 well Greiner 784076 (black) low-volume plates by ECHO liquid dispenser. 8 μL pooled human plasma, which was previously aliquoted and frozen, was added. Plates were centrifuged for 10 sec at 500 rpm. After 30 minutes preincubation, 2 μL of substrate solution comprising 2.5 mM 2-thio-PAF [from ethanol stock], 32 μM CPM [from a DMSO stock] and 3.2 mM NEM (N-ethylmaleimide) [made fresh daily in DMSO] in assay buffer of 50 mM HEPES, pH 7.4, 150 mM NaCl, 1 mM CHAPS was added to 384 well Greiner 784076 (black) low-volume plates by BRAVO liquid handling station. After 2 mins, reaction was quenched with 5 μL of 5% aqueous trifluoroacetic acid (TFA). Plates were covered to protect from light and incubated for 40 min at room temperature. Plates were read at ex: 380/em: 485 using Envision microplate reader. PIC50 data, curve and QC analysis were conducted by using XLFit module in Excel.

Compound	rhLp-PLA2 (PED6 assay) (pIC50) [1]	pIC50 in the thio-PAF assay [2]
O=c1nc(OCc2ccc(F)c(F)c2)cc2n1CCCN2Cc1ccccc1 [Example E1, 1-benzyl-8-((3,4-difluorobenzyl)oxy)-3,4-dihydro-1H-pyrimido[1,6-a]pyrimidin-6(2H)-one]	at least 8.0	at least 6.0
O=c1nc(OCc2ccc(F)c(F)c2)cc2n1CCCN2Cc1ccc(Cl)cc1 [Example E2, 1-(4-chlorobenzyl)-8-((3,4-difluorobenzyl)oxy)-3,4-dihydro-1H-pyrimido[1,6-a]pyrimidin-6(2H)-one]	at least 8.0	at least 6.0
O=c1nc(OCc2ccc(F)c(F)c2)cc2n1CCCN2Cc1ccc(F)cc1 [Example E3, 8-((3,4-difluorobenzyl)oxy)-1-(4-fluorobenzyl)-3,4-dihydro-1H-pyrimido[1,6-a]pyrimidin-6(2H)-one]	at least 8.0	at least 6.0
COc1ccc(CN2CCCn3c2cc(OCc2ccc(F)c(F)c2)nc3=O)cc1 [Example E4, 8-((3,4-difluorobenzyl)oxy)-1-(4-methoxybenzyl)-3,4-dihydro-1H-pyrimido[1,6-a]pyrimidin-6(2H)-one]	at least 8.0	at least 6.0
O=c1nc(OCc2ccc(F)c(F)c2)cc2n1CCCN2Cc1ccc(F)c(F)c1 [Example E5, 1-(3,4-difluorobenzyl)-8-((3,4-difluorobenzyl)oxy)-3,4-dihydro-1H-pyrimido[1,6-a]pyrimidin-6(2H)-one]	at least 8.0	at least 6.0
COc1cccc(CN2CCCn3c2cc(OCc2ccc(F)c(F)c2)nc3=O)c1 [Example E6, 8-((3,4-difluorobenzyl)oxy)-1-(3-methoxybenzyl)-3,4-dihydro-1H-pyrimido[1,6-a]pyrimidin-6(2H)-one]	at least 8.0	at least 6.0
Cc1ccccc1CN1CCCn2c1cc(OCc1ccc(F)c(F)c1)nc2=O [Example E7, 8-((3,4-difluorobenzyl)oxy)-1-(2-methylbenzyl)-3,4-dihydro-1H-pyrimdo[1,6-a]pyrimidin-6(2H)-one]	at least 8.0	at least 6.0
O=c1nc(OCc2ccc(Oc3ccc(Cl)c(C(F)(F)F)c3)c(F)c2)cc2n1CCCN2C1CC1 [Example E8, 8-((4-(4-chloro-3-(trifluoromethyl)phenoxy)-3-fluorobenzyl)oxy)-1-cyclopropyl-3,4-dihydro-1H-pyrimido[1,6-a]pyrimidin-6(2H)-one]	at least 8.0	at least 6.0
O=c1nc(OCc2ccc(Oc3cccc(C(F)(F)F)c3)c(F)c2)cc2n1CCCN2C1CC1 [Example E9, 1-cyclopropyl-8-((3-fluoro-4-(3-(trifluoromethyl)phenoxy)benzyl)oxy)-3,4-dihydro-1H-pyrimido[1,6-a]pyrimidin-6(2H)-one]	at least 8.0	at least 6.0
O=c1nc(OCc2ccc(Oc3ccc(F)c(F)c3)c(F)c2)cc2n1CCCN2C1CC1 [Example E10, 1-cyclopropyl-8-((4-(3,4-difluorophenoxy)-3-fluorobenzyl)oxy)-3,4-dihydro-1H-pyrimido[1,6-a]pyrimidin-6(2H)-one]	at least 8.0	at least 6.0
N#Cc1cc(COc2cc3n(c(=O)n2)CCCN3C2CC2)ccc1Oc1ccc(Cl)c(C(F)(F)F)c1 [Example E11, 2-(4-chloro-3-(trifluoromethyl)phenoxy)-5-(((1-cyclopropyl-6-oxo-2,3,4,6-tetrahydro-1H-pyrimido[1,6-a]pyrimidin-8-yl)oxy)methyl)benzonitrile]	at least 8.0	at least 6.0
O=c1nc(OCc2ccc(Oc3cccc(F)c3)c(F)c2)cc2n1CCCN2C1CC1 [Example E12, 1-cyclopropyl-8-((3-fluoro-4-(3-fluorophenoxy)benzyl)oxy)-3,4-dihydro-1H-pyrimido[1,6-a]pyrimidin-6(2H)-one]	at least 8.0	at least 6.0
CCCNC(=O)CN1CCCn2c1cc(OCc1ccc(F)c(F)c1)nc2=O [Example E13, 2-(8-((3,4-difluorobenzyl)oxy)-6-oxo-2,3,4,6-tetrahydro-1H-pyrimido[1,6-a]pyrimidin-1-yl)-N-propylacetamide]	at least 8.0	at least 6.0
O=C(CN1CCCn2c1cc(OCc1cc(F)c(F)c(F)c1)nc2=O)N1CCCC1 [Example E14, 1-(2-oxo-2-(pyrrolidin-1-yl)ethyl)-8-((3,4,5-trifluorobenzyl)oxy)-3,4-dihydro-1H-pyrimido[1,6-a]pyrimidin-6(2H)-one]	at least 8.0	at least 6.0
CNC(=O)CN1CCCn2c1cc(OCc1cc(F)c(F)c(F)c1)nc2=O [Example E15, N-methyl-2-(6-oxo-8-((3,4,5-trifluorobenzyl)oxy)-2,3,4,6-tetrahydro-H-pyrimido[1,6-a]pyrimidin-1-yl)acetamide]	at least 8.0	at least 6.0
O=C(CN1CCCn2c1cc(OCc1cc(F)c(F)c(F)c1)nc2=O)N1CCOCC1 [Example E16, 1-(2-morpholino-2-oxoethyl)-8-((3,4,5-trifluorobenzyl)oxy)-3,4-dihydro-1H-pyrimido[1,6-a]pyrimidin-6(2H)-one]	at least 8.0	at least 6.0
CNC(=O)CN1CCCn2c1cc(OCc1ccc(F)c(F)c1)nc2=O [Example E17]	at least 8.0	at least 6.0
O=C(CN1CCCn2c1cc(OCc1ccc(F)c(F)c1)nc2=O)N1CCCC1 [Example E18, 8-((3,4-difluorobenzyl)oxy)-1-(2-oxo-2-(pyrrolidin-1-yl)ethyl)-3,4-dihydro-1H-pyrimido[1,6-a]pyrimidin-6(2H)-one]	at least 8.0	at least 6.0
CN1CCN(C(=O)CN2CCCn3c2cc(OCc2ccc(F)c(F)c2)nc3=O)CC1 [Example E19, 8-((3,4-difluorobenzyl)oxy)-1-(2-(4-methylpiperazin-1-yl)-2-oxoethyl)-3,4-dihydro-1H-pyrimido[1,6-a]pyrimidin-6(2H)-one]	at least 8.0	at least 6.0
O=C(CN1CCCn2c1cc(OCc1ccc(F)c(F)c1)nc2=O)N1CCC(F)(F)CC1 [Example E20, 8-((3,4-difluorobenzyl)oxy)-1-(2-(4,4-difluoropiperidin-1-yl)-2-oxoethyl)-3,4-dihydro-1H-pyrimido[1,6-a]pyrimidin-6(2H)-one]	at least 8.0	at least 6.0
